Assay results taken from US20200407457A1 (YANTAI OBIOADC BIOMEDICAL TECHNOLOGY, published 2020).
These are yes or no findings as the source states them, for the method shown. Some binding calls cover weakened binding; strength is not graded here.

Protein sequences, listed by entry. Tags and fused reporters are not part of them. Residues count along the entry.
UniProt O14763, residues 56-182: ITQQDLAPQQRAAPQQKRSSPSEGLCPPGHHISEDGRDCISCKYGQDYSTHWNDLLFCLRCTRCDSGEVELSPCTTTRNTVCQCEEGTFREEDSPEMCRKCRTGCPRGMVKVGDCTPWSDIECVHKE

Target: humanized recombinant protein TRAILR2 (human (printed as "humanized recombinant protein TRAILR2")) (UniProt O14763)
Experiment: ELISA, plate coated with 2 ug/ml recombinant TRAILR2

binding: binds
B1: Zaptuzumab (antibody, V domains shown)
VH: QVQLVQSGSELKKPGASVKVSCKASGYTFTDFSMNWVRQAPGQGLEWMGWINTETGEPTYADDFKGRFVFSLDTSVSTAYLQISSLKAEDTAVYYCARIDYWGQGTTVTVSS
VL: DIVMTQSPLSLPVTPGEPASISCRSSQSLVHSNGNTYLHWYLQKPGQSPQLLIYKVSNRFSGVPDRFSGSGSGTDFTLKISRVEAEDVGVYYCFQSTHVPHTFGQGTKLEIKR
